Experimental data: US9635857B2, “Tetrazolinone compound and use thereof” (SUMITOMO CHEMICAL COMPANY, LIMITED, priority 2013, dated 2017)
Some results were stated once for a whole list of compounds, not compound by compound. For at least one compound, name, drawing or mass did not settle the structure.

Columns and labels:
Type in all cases: in vivo
[1] = test system: barley scald fungus (Rhynchosporium secalis); test: Test Example 8: barley scald control, foliar spray on barley; details: 200 ppm water dilution containing a surfactant sprayed on barley (NISHINOHOSHI); inoculated after 2 days; assessed after 3 + 7 days
[2] = test system: cucumber powdery mildew fungus (Sphaerotheca fuliginea); test: Test Example 6: cucumber powdery mildew control, foliar spray on cucumber; details: 500 ppm sprayed on cucumber (SAGAMI HANJIRO); assessed 8 days after inoculation
[3] = test system: wheat leaf blotch fungus (Septoria tritici); test: Test Example 5: wheat leaf blotch control, foliar spray on wheat; details: 500 ppm sprayed on wheat (APOGEE); inoculated after 4 days; assessed after 3 days + 14 to 18 days
[4] = test system: kidney bean stem rot fungus (Sclerotinia sclerotiorum); test: Test Example 4: kidney bean stem rot control, foliar spray on kidney bean; details: 500 ppm sprayed on kidney bean (NAGAUZURA SAIYTOU); assessed four days after inoculation
[5] = test system: cucumber target leaf spot fungus (Corynespora cassiicola); test: Test Example 9: cucumber target leaf spot control, foliar spray on cucumber; details: 200 ppm sprayed on cucumber (SAGAMI HANJIRO); inoculated after 1 day; assessed after 7 days

Measured: area of lesion on the treated plant relative to that on an untreated plant

Cc1cccc(-n2nnn(C)c2=O)c1COc1cccc(Oc2ccccc2)c1 [compound 1]
≤ 30%: [1] | [2] | [3]

COc1cccc(-n2nnn(C)c2=O)c1COc1cc(Oc2ccccc2)ccc1C [compound 2]
≤ 30%: [1] | [2] | [3]

CON=C(C)c1cccc(OCc2c(C)cccc2-n2nnn(C)c2=O)c1 [compound 4]
not listed: [5]
≤ 30%: all other assays above

CON=C(C)c1cccc(OCc2c(OC)cccc2-n2nnn(C)c2=O)c1 [compound 5]
not listed: [5]
≤ 30%: all other assays above

CON=C(C)c1cccc(OCc2c(C3CC3)cccc2-n2nnn(C)c2=O)c1 [compound 6]
not listed: [5]
≤ 30%: all other assays above

CON=C(C)c1ccc(C)c(OCc2c(OC)cccc2-n2nnn(C)c2=O)c1 [compound 8]
≤ 30%: all assays above

CON=C(C)c1ccc(C)c(OCc2c(C3CC3)cccc2-n2nnn(C)c2=O)c1 [compound 9]
≤ 30%: all assays above

CC(=NOc1ccccc1)c1cccc(OCc2c(C)cccc2-n2nnn(C)c2=O)c1 [compound 10]
≤ 30%: [4]

CC(=NOCc1ccccc1)c1cccc(OCc2c(C)cccc2-n2nnn(C)c2=O)c1 [compound 11]
≤ 30%: all assays above

C=CCON=C(C)c1cccc(OCc2c(C)cccc2-n2nnn(C)c2=O)c1 [compound 13]
not listed: [5]
≤ 30%: all other assays above

CC(=NOCc1ccccc1C(F)(F)F)c1cccc(OCc2c(C)cccc2-n2nnn(C)c2=O)c1 [compound 15]
not listed: [5]
≤ 30%: all other assays above

CCCON=C(C)c1cccc(OCc2c(C)cccc2-n2nnn(C)c2=O)c1 [compound 18]
not listed: [4]
≤ 30%: all other assays above

CC(=NOCc1ccccc1)c1ccc(C)c(OCc2c(C)cccc2-n2nnn(C)c2=O)c1 [compound 20]
≤ 30%: [1] | [2] | [3]

CCC(=NOC)c1cccc(OCc2c(C)cccc2-n2nnn(C)c2=O)c1 [compound 26]
≤ 30%: [1] | [2] | [3]

CCC(=NOC)c1cccc(OCc2c(OC)cccc2-n2nnn(C)c2=O)c1 [compound 27]
≤ 30%: [1] | [2] | [3]

CCC(=NOC)c1cccc(OCc2c(C3CC3)cccc2-n2nnn(C)c2=O)c1 [compound 29]
≤ 30%: [1] | [2] | [3]

Cc1cccc(-n2nnn(C)c2=O)c1COc1cccc(N(C)c2ccccc2)c1 [compound 33]
≤ 30%: [1] | [2] | [3]

Cc1cccc(Oc2cccc(OCc3c(C)cccc3-n3nnn(C)c3=O)n2)n1 [compound 36]
≤ 30%: [1] | [2] | [3]

Cc1cccc(-n2nnn(C)c2=O)c1COc1cccc(OCc2ccccc2)c1 [compound 37]
≤ 30%: [1] | [2] | [3]

COc1cccc(COc2cccc(OCc3c(C)cccc3-n3nnn(C)c3=O)c2)c1 [compound 39]
≤ 30%: [1] | [2] | [3]

COc1ccccc1COc1cccc(OCc2c(C)cccc2-n2nnn(C)c2=O)c1 [compound 40]
≤ 30%: [1] | [2] | [3]

Cc1cccc(-n2nnn(C)c2=O)c1COc1cccc(OCC2CCCCC2)c1 [compound 41]
≤ 30%: [1] | [3]

Cc1cccc(-n2nnn(C)c2=O)c1COc1cccc(OC2CCCC2)c1 [compound 42]
≤ 30%: [1] | [3]

Cc1cccc(-n2nnn(C)c2=O)c1COc1cccc(OC(C)c2ccc(Cl)cc2)c1 (stereo not shown) [compound 43]
≤ 30%: [1] | [2] | [3]

CON=C(C)c1cccc(OCc2c(C)cccc2-n2nnn(C)c2=O)n1 [compound 44]
≤ 30%: [1] | [2] | [3]

Cc1cccc(-n2nnn(C)c2=O)c1COc1cccc(COc2ccccn2)c1 [compound 46]
≤ 30%: [5] | [1]
